Measurements as given in publication PMC7761982, “FDA-Approved Drugs with Potent In Vitro Antiviral Activity against Severe Acute Respiratory Syndrome Coronavirus 2” (Pharmaceuticals, 2020).

Assay: in vitro
Conditions: African green monkey, CC50 (Vero-E6)

CC1=C(C(=O)O)N2C(=O)[C@@H](NC(=O)[C@H](N)c3ccccc3)[C@H]2SC1 [Cephalexin]
CC50: 523 µM
